PubChem BioAssay AID652259 | Drosophila RNAi Screening Center – 2013
Screen: 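Identify new Wingless signalling regulators in fly cells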 (primary screen). Cell system: Drosophila clone 8 imaginal disc epithelial cells. Reagents: long dsRNA against Drosophila genes. Treatment: pathway stimulated by co-transfected Wingless expression plasmid. Detection: 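Dual luciferase reads per well after Wingless plasmid stimulation: reporter firefly light and Renilla control light; activity is firefly divided by Renilla, a ratio not deposited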. Direction: firefly reporter light: higher = more Wg reporter light, before normalisation; Renilla control light: higher = more transfected or surviving cells. Hit rule: 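a knock-down is a candidate when at least two out of four statistical tests show it departing from its plate mean; one test alone signals a weak candidate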. Calls: active = candidate regulator (raises or lowers reporter); inactive = not a candidate.
In all, the deposit lists about 22,000 reagents; below is a random part of those with a known target gene and a result. Over the whole deposit, 233 (1.1%) got an active call. 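Light values are raw, unnormalised plate reads; the ratio scores behind the reporter calls were not deposited.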 Names joined by + are all predicted targets of the reagent. Not stated in the record: the amount of reagent, the time to read-out, the dose of the treatment.

CG34267 [DRSC07881] → firefly reporter light, replicate 1 = 3121; Renilla control light, replicate 1 = 1376; outcome = inactive
krimp [DRSC06578] → firefly reporter light, replicate 1 = 13962; Renilla control light, replicate 1 = 5255; outcome = inactive
Rnmt [DRSC03558] → firefly reporter light, replicate 1 = 2884; firefly reporter light, replicate 2 = 4448; Renilla control light, replicate 1 = 1111; Renilla control light, replicate 2 = 2038; outcome = inactive
Fer3 [DRSC16133] → firefly reporter light, replicate 1 = 6108; Renilla control light, replicate 1 = 1936; outcome = inactive
nol [DRSC21425] → firefly reporter light, replicate 1 = 4.39e5; firefly reporter light, replicate 2 = 4.52e5; Renilla control light, replicate 1 = 1.75e5; Renilla control light, replicate 2 = 1.47e5; outcome = inactive
Gycbeta100B [DRSC14039] → firefly reporter light, replicate 1 = 3045; Renilla control light, replicate 1 = 1373; outcome = inactive
Gycbeta100B [DRSC14040] → firefly reporter light, replicate 1 = 2800; Renilla control light, replicate 1 = 992; outcome = inactive
Gycbeta100B [DRSC16691] → firefly reporter light, replicate 1 = 3969; firefly reporter light, replicate 2 = 11952; Renilla control light, replicate 1 = 2192; Renilla control light, replicate 2 = 4843; outcome = inactive
eys [DRSC00113] → firefly reporter light, replicate 1 = 9696; Renilla control light, replicate 1 = 5661; outcome = inactive
eys [DRSC00402] → firefly reporter light, replicate 1 = 3973; firefly reporter light, replicate 2 = 4205; Renilla control light, replicate 1 = 1124; Renilla control light, replicate 2 = 1379; outcome = inactive
eys [DRSC00403] → firefly reporter light, replicate 1 = 2454; firefly reporter light, replicate 2 = 4867; Renilla control light, replicate 1 = 864; Renilla control light, replicate 2 = 2029; outcome = inactive
eys [DRSC00695] → firefly reporter light, replicate 1 = 13121; Renilla control light, replicate 1 = 5205; outcome = inactive
CG18744 [DRSC15381] → firefly reporter light, replicate 1 = 11080; Renilla control light, replicate 1 = 3004; outcome = inactive
CG12507 [DRSC19463] → firefly reporter light, replicate 1 = 16464; Renilla control light, replicate 1 = 8416; outcome = inactive
CG9853 [DRSC12343] → firefly reporter light, replicate 1 = 8784; Renilla control light, replicate 1 = 3488; outcome = inactive
CG9853 [DRSC22840] → firefly reporter light, replicate 1 = 6.36e5; firefly reporter light, replicate 2 = 5.93e5; Renilla control light, replicate 1 = 1.72e5; Renilla control light, replicate 2 = 2.13e5; outcome = inactive
Tcs6 + PIG-P [DRSC13742] → firefly reporter light, replicate 1 = 2967; Renilla control light, replicate 1 = 1648; outcome = inactive
Tcs6 + PIG-P [DRSC14893] → firefly reporter light, replicate 1 = 18096; Renilla control light, replicate 1 = 14713; outcome = inactive

An excerpt of the results above:
Gycbeta100B [DRSC16691] → firefly reporter light, replicate 1 = 3969; firefly reporter light, replicate 2 = 11952; Renilla control light, replicate 1 = 2192; Renilla control light, replicate 2 = 4843; outcome = inactive
eys [DRSC00113] → firefly reporter light, replicate 1 = 9696; Renilla control light, replicate 1 = 5661; outcome = inactive
